# The other results are listed elsewhere or left out. Residues, ends and D or L forms follow the SMILES beside them. *: point of attachment. Cbz = O=C(OCc1ccccc1)*
# The chains behind the UniProt entries cited, without tags or fusion partners. Where a name states a change or a piece, a line headed by the entry shows the natural chain unless it says otherwise.
# UniProt Q8TBM8: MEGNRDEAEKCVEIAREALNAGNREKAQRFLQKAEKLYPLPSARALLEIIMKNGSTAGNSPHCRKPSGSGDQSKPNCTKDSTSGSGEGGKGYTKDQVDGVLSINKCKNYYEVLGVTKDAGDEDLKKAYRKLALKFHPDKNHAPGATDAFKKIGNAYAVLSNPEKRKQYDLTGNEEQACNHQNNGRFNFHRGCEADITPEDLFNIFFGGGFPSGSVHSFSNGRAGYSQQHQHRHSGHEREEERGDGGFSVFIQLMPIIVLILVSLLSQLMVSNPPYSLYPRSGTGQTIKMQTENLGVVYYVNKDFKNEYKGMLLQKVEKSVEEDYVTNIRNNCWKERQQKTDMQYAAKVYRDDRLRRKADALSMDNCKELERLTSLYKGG
# UniProt Q96DA6: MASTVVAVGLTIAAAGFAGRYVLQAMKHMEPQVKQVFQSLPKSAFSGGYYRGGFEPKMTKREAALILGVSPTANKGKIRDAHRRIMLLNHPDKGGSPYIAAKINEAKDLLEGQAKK
# UniProt O77932: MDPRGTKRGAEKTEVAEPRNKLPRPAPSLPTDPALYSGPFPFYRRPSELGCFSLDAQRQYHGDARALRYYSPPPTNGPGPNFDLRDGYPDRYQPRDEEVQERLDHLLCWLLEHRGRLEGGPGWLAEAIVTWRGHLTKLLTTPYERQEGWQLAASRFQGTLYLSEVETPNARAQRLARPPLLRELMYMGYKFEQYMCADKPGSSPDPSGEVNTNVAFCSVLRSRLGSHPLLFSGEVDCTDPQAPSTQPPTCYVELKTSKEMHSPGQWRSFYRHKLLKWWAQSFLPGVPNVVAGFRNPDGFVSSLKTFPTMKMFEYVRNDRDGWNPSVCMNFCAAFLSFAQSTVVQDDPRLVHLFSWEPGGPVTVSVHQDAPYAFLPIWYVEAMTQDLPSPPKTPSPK
# UniProt Q6P2E9: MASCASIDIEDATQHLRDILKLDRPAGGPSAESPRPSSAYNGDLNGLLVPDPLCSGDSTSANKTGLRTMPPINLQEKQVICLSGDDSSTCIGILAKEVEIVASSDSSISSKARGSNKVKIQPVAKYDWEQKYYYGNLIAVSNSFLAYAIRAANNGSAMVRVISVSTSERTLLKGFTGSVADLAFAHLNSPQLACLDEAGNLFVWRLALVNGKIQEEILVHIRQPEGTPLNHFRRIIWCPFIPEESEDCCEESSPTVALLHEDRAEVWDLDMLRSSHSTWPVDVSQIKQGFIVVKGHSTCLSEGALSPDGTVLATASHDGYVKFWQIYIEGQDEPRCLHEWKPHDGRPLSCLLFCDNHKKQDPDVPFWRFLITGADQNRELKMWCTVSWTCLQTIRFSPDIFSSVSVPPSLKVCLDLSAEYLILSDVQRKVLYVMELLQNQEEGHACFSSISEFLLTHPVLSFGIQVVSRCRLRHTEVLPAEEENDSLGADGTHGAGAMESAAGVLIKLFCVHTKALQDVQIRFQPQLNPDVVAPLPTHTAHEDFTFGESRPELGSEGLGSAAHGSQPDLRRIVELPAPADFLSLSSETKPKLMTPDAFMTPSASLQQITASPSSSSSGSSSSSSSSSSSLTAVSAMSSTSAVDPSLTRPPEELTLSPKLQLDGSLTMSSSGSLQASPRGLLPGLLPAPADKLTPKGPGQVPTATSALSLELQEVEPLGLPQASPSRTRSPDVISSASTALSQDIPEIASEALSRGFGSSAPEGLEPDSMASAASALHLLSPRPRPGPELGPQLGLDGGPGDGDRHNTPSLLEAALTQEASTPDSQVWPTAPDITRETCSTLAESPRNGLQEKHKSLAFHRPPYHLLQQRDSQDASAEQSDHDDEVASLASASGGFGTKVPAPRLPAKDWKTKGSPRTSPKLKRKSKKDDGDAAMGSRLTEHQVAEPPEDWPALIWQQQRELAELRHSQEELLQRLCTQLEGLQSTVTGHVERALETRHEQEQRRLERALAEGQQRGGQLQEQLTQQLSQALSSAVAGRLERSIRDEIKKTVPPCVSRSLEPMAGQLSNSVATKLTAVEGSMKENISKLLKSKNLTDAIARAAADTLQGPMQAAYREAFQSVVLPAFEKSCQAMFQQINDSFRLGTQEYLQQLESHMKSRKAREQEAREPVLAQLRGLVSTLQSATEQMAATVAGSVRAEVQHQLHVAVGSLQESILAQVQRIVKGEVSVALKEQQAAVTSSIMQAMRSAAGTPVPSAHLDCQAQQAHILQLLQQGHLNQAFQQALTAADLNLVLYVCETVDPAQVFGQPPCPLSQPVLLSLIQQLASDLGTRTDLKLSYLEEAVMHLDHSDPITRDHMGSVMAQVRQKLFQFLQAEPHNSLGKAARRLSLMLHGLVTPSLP
# UniProt Q9BV94: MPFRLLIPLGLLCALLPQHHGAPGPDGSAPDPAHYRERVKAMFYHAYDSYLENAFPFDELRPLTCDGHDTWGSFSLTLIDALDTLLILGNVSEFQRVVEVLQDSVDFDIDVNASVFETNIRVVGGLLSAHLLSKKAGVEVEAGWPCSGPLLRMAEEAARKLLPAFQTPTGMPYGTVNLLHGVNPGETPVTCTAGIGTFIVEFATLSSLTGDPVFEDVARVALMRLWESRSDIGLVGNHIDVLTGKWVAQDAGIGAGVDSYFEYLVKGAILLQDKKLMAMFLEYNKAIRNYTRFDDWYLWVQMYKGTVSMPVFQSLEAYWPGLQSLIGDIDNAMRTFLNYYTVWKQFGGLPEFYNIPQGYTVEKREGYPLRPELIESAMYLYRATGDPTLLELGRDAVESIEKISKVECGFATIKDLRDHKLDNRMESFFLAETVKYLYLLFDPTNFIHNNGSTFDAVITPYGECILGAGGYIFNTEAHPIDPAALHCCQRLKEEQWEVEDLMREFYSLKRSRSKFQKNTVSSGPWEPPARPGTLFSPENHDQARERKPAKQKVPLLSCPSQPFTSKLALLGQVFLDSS
# UniProt Q5VYK3, whole entry, looked up: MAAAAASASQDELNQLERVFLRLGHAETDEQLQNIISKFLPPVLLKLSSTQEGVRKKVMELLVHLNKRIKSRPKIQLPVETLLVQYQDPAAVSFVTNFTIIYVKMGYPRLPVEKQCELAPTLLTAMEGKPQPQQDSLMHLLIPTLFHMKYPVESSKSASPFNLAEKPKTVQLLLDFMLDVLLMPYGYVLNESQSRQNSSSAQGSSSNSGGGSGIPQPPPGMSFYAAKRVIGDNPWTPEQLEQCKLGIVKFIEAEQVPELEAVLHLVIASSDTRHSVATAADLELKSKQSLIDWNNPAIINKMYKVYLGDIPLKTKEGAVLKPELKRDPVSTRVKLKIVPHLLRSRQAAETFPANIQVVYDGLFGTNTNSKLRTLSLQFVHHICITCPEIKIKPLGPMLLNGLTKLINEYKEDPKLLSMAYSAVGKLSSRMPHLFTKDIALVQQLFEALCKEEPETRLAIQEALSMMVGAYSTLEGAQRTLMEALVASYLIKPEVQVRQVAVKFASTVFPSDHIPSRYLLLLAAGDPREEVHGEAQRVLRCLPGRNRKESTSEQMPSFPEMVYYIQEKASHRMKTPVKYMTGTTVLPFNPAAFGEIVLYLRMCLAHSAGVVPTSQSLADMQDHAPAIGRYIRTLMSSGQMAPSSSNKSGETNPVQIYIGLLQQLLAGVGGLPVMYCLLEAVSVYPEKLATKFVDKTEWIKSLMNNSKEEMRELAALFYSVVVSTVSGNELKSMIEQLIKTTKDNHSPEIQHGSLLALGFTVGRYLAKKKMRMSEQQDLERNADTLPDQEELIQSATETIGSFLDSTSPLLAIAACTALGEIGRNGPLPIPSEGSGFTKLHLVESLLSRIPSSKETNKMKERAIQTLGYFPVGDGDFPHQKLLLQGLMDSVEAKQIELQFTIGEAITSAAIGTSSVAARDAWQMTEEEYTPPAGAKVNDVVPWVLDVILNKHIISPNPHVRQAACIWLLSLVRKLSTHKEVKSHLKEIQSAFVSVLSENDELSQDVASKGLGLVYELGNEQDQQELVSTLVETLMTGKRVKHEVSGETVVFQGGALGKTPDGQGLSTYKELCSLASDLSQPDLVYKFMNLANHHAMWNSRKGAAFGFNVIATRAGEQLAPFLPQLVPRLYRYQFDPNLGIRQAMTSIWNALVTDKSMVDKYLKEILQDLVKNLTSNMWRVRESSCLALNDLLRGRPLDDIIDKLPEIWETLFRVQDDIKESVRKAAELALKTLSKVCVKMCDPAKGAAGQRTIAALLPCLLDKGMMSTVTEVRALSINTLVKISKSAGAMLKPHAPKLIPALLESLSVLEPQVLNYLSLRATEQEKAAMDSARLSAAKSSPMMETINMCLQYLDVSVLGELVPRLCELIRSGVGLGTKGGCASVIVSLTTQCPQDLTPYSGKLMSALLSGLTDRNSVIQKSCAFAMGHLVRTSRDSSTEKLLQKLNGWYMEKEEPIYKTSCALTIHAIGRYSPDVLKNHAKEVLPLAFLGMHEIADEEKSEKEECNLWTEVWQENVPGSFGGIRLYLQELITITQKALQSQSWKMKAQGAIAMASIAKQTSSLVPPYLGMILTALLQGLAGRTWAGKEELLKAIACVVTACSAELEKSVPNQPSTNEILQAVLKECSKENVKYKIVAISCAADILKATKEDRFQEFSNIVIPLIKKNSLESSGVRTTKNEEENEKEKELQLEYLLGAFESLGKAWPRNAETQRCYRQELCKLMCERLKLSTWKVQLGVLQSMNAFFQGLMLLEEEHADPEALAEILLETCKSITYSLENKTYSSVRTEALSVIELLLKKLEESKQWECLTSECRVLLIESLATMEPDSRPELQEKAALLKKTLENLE
# UniProt Q9Y6G9, whole entry, looked up: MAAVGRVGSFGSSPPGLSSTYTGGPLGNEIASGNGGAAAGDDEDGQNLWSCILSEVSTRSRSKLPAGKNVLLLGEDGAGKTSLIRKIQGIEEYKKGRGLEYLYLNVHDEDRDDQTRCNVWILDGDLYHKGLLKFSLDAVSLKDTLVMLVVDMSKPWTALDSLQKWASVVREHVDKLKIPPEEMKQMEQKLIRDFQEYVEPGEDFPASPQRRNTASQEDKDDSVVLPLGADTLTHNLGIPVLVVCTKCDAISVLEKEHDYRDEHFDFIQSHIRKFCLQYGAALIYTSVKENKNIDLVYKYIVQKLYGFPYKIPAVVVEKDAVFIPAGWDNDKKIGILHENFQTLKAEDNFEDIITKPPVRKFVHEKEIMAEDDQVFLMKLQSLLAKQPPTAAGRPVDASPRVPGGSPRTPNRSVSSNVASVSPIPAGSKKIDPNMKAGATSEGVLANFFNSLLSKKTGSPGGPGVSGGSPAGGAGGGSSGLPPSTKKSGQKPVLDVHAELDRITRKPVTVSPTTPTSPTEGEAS
# Columns and labels:
# Experiment in all cases: log2 fold change, soluble protein after heating vs DMSO (PISA); higher = thermal stabilisation; K562 cells, 10 uM, 30 min; active = over 0.2 and 3.5 SD of the protein, either way, in both replicates (recomputed)
# IRAK-1-4 Inhibitor I = compound: C1COCCN1CCN2C3=CC=CC=C3N=C2NC(=O)C4=CC(=CC=C4)[N+](=O)[O-] [IRAK-1-4 Inhibitor I]
# Procedure, shortened: (§1)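 K562 cells at 2×10^6 cells/mL were exposed to 10 μM compound for 30 min, then aliquots were heated for 3 min across 48°C-58°C, pooled, and extracted in PBS containing 0.5% NP-40 at 4°C. The supernatant after 21,000xg for 90 min was taken as soluble protein and measured by TMTpro 16plex LC-MS/MS with channel sums equalised. Thermal stability is reported relative to control samples, with values from duplicates. Fold changes are given on a log2 scale.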
# ibrutinib = compound: C=CC(=O)N1CCC[C@@H](n2nc(-c3ccc(Oc4ccccc4)cc3)c3c(N)ncnc32)C1 [ibrutinib]
# Procedure, shortened: as §1
# [1] = compound: CC(=O)c1cnc2ccc(-c3cc(Cl)c(O)c(Cl)c3)nc2c1N[C@H]1CC[C@H](CN(C)C)CC1
# Procedure, shortened: as §1
# ralimetinib = compound: CC(C)(C)Cn1c(N)nc2ccc(-c3[nH]c(C(C)(C)C)nc3-c3ccc(F)cc3)nc21 [ralimetinib]
# Procedure, shortened: as §1
# [2] = compound: CC(C)(O)CC(=O)NCCn1ccc2ncnc(Nc3ccc(Oc4cccc(C(F)(F)F)c4)c(Cl)c3)c21
# Procedure, shortened: as §1
# [3] = compound: CC(C)C1=C2N=C(C=C(N2N=C1)NCC3=CC=CC=C3)NCCCCCCN
# Procedure, shortened: as §1
# [4] = compound: CC(C)C[C@@H](C=O)NC(=O)[C@H](CC(C)C)NC(=O)[C@H](CC(C)C)NC(=O)OCc1ccccc1
# Procedure, shortened: as §1
# pinometostat = compound: CC(C)N(C[C@H]1O[C@@H](n2cnc3c(N)ncnc32)[C@H](O)[C@@H]1O)[C@H]1C[C@@H](CCc2nc3cc(C(C)(C)C)ccc3[nH]2)C1 [pinometostat]
# Procedure, shortened: as §1
# [5] = compound: CC1=C(C(CC(=O)N1)C2=CC=C(C=C2)C(F)(F)F)C(=O)NC3=C(C=C4C(=C3)C=NN4)F
# Procedure, shortened: as §1
# [6] = compound: CC1=C(C2=C(C=C1)C(=O)C3=CC=CC=C3N2CCCN)C
# Procedure, shortened: as §1
# [7] = compound: CC1=C(C=C(C=C1)NC(=O)C2=CC(=CC=C2)C(C)(C)C#N)NC3=CC4=C(C=C3)N=CN(C4=O)C
# Procedure, shortened: as §1
# [8] = compound: CC1=C(C=C(C=C1)NC(=O)C2=CC(=CC=C2)N(C)C)NC(=O)C3=CC=C(C=C3)O
# Procedure, shortened: as §1
# [9] = compound: CC1=CC=C(C=C1)SC2=C3C=C(SC3=CN=C2)C(=O)N
# Procedure, shortened: as §1
# [10] = compound: CC1=NC(=CC=C1)C2=C(N=C(N2)C(C)(C)C)C3=CC4=NC=CN=C4C=C3
# Procedure, shortened: as §1
# Nexturastat A = compound: CCCCN(Cc1ccc(C(=O)NO)cc1)C(=O)Nc1ccccc1 [Nexturastat A]
# Procedure, shortened: as §1
# vemurafenib = compound: CCCS(=O)(=O)Nc1ccc(F)c(C(=O)c2c[nH]c3ncc(-c4ccc(Cl)cc4)cc23)c1F [vemurafenib]
# Procedure, shortened: as §1
# [11] = compound: CCCS(=O)(=O)Nc1ccc(F)c(C(=O)c2c[nH]c3ncc(Cl)cc23)c1F
# Procedure, shortened: as §1
# [12] = compound: CCCc1cc(C)[nH]c(=O)c1CNC(=O)c1cc(-c2ccnc(N3CCN(C)CC3)c2)cc2c1cnn2C(C)C
# Procedure, shortened: as §1
# givinostat = compound: CCN(CC)Cc1ccc2cc(COC(=O)Nc3ccc(C(=O)NO)cc3)ccc2c1 [givinostat]
# Procedure, shortened: as §1
# barasertib = compound: CCN(CCCOc1ccc2c(Nc3cc(CC(=O)Nc4cccc(F)c4)[nH]n3)ncnc2c1)CCOP(=O)(O)O [barasertib]
# Procedure, shortened: as §1
Target,log2 fold change (IRAK-1-4 Inhibitor I),log2 fold change (ibrutinib),log2 fold change [1],log2 fold change (ralimetinib),log2 fold change [2],log2 fold change [3],log2 fold change [4],log2 fold change (pinometostat),log2 fold change [5],log2 fold change [6],log2 fold change [7],log2 fold change [8],log2 fold change [9],log2 fold change [10],log2 fold change (Nexturastat A),log2 fold change (vemurafenib),log2 fold change [11],log2 fold change [12],log2 fold change (givinostat),log2 fold change (barasertib)
DNAJB14 (UniProt Q8TBM8),inactive: 0.083,inactive: 0.015,inactive: -0.112,inactive: -0.035,inactive: 0,inactive: 0.192,inactive: 0.119,inactive: -0.003,inactive: -0.065,inactive: 0.069,inactive: -0.049,inactive: -0.14,inactive: 0.041,inactive: 0.079,inactive: -0.104,inactive: 0.016,inactive: 0.044,inactive: -0.011,inactive: 0.205,inactive: -0.029
DNAJC19 (UniProt Q96DA6),inactive: 0.045,inactive: 0.024,inactive: 0.038,inactive: 0.029,inactive: -0.054,inactive: -0.153,inactive: -0.006,inactive: -0.013,–,inactive: 0.023,inactive: -0.02,inactive: 0.001,inactive: 0.043,inactive: 0.069,inactive: -0.121,inactive: 0.003,inactive: 0.035,inactive: -0.013,inactive: 0.005,inactive: 0.007
DNPEP (UniProt Q9ULA0),inactive: 0.009,inactive: 0.017,inactive: 0.042,inactive: -0.001,inactive: -0.027,inactive: 0.083,inactive: -0.027,inactive: -0.032,inactive: 0.016,inactive: 0.021,inactive: -0.029,inactive: 0.013,inactive: -0.016,inactive: 0.055,inactive: -0.06,inactive: -0.01,inactive: 0.004,inactive: 0.003,inactive: 0.007,inactive: -0.016
DXO (UniProt O77932),inactive: 0.011,inactive: -0.005,inactive: -0.07,inactive: -0.084,inactive: -0.188,inactive: -0.067,inactive: 0.062,inactive: -0.028,inactive: -0.019,inactive: -0.016,–,inactive: -0.012,–,inactive: 0.099,inactive: 0.216,inactive: -0.029,–,inactive: -0.011,inactive: -0.09,inactive: 0.023
EDC4 (UniProt Q6P2E9),inactive: -0.041,inactive: -0.001,active: -0.387,inactive: 0.019,inactive: 0.007,inactive: -0.181,inactive: 0.022,inactive: 0.05,–,inactive: -0.032,inactive: 0.004,inactive: -0.048,inactive: -0.022,inactive: -0.035,inactive: 0.022,inactive: 0.035,inactive: 0.03,inactive: 0.029,inactive: 0.031,inactive: 0.057
EDEM2 (UniProt Q9BV94),inactive: 0.181,inactive: -0.014,inactive: -0.062,inactive: -0.138,inactive: -0.009,inactive: -0.071,inactive: 0.065,inactive: -0.001,–,inactive: 0.022,inactive: -0.064,inactive: -0.001,inactive: -0.084,inactive: -0.204,inactive: 0.036,inactive: -0.032,inactive: -0.149,inactive: 0.095,inactive: 0.013,inactive: 0.21
ECPAS (UniProt Q5VYK3),inactive: -0.117,inactive: -0.09,inactive: 0.009,inactive: 0.082,inactive: -0.139,inactive: -0.094,active: 0.564,inactive: 0.055,–,inactive: 0.092,inactive: 0.008,inactive: -0.06,inactive: 0.016,inactive: 0.02,inactive: 0.049,inactive: 0.084,inactive: 0.059,inactive: 0.051,inactive: 0.118,inactive: 0.037
DYNC1LI1 (UniProt Q9Y6G9),inactive: -0.017,inactive: -0.05,inactive: -0.005,inactive: -0.013,inactive: -0.045,inactive: -0.043,inactive: 0.024,inactive: 0.043,inactive: -0.017,inactive: 0.014,inactive: 0.054,inactive: -0.023,inactive: -0.02,inactive: -0.012,inactive: 0.02,inactive: -0.001,inactive: 0.009,inactive: 0.041,inactive: -0.018,inactive: -0.001
